PubChem BioAssay AID1259308 – NCATS – 2017
The whole screen tested about 59,000 reagents; shown is a part drawn at random. About 1,510 of all reagents (2.6%) were called active. 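Calls use total luciferase alone and ignore viability, so some active siRNAs may act by altering cell number.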 A number with no mark means an inactive call. Reagents against one gene are numbered here. Not all columns of the deposit are shown.

Aim: 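Candidate targets for better recombinant protein yield in mammalian cells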 (primary screen)
Cell system: human HEK293 embryonic kidney cells stably expressing firefly luciferase (HEK-CMV-Luc2-Hygro)
Reagent: single siRNA against human genes, 0.8 pmol siRNA per well
Duration: 72 h
Measured: 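Reporter luminescence and viable-cell signal on separate replicate plates, given as percent of non-targeting control and median/MAD z-scores, plus per-cell luciferase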
Reading the numbers: total luciferase, z-score: higher = more reporter protein produced
Hit rule: 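An siRNA counts as active if its total luciferase robust z-score exceeds 3; genes with two or more such siRNAs out of three were retested with fresh siRNAs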
Calls: active = raised luciferase; inactive = no rise

With ZFP57 (GeneID 346171) #1, what was measured?
total luciferase, z-score: 0.577

How did the screen score ZFP57 (GeneID 346171) #2?
total luciferase, z-score: 1.26

How did the screen score ZFP57 (GeneID 346171) #3?
total luciferase, z-score: 0.38

For METTL14 (GeneID 57721) #1, what was measured?
total luciferase, z-score: -0.674

For METTL14 (GeneID 57721) #2, what was measured?
total luciferase, z-score: 0.669

What did the screen give for METTL14 (GeneID 57721) #3?
total luciferase, z-score: -1.14

What is on record for COQ9 (GeneID 57017) #1?
total luciferase, z-score: 0.813

What did the screen give for COQ9 (GeneID 57017) #2?
total luciferase, z-score: 1.67

How did the screen score COQ9 (GeneID 57017) #3?
total luciferase, z-score: -0.228

How did the screen score ZMYND8 (GeneID 23613) #1?
total luciferase, z-score: -0.0725

With ZMYND8 (GeneID 23613) #2, what does the deposit list?
total luciferase, z-score: 0.351

What did the screen give for ZMYND8 (GeneID 23613) #3?
total luciferase, z-score: -0.452

Which result is listed for ADCY9 (GeneID 115) #1?
total luciferase, z-score: 0.306

Which result is listed for ADCY9 (GeneID 115) #2?
total luciferase, z-score: -0.268

What did the screen give for ADCY9 (GeneID 115) #3?
total luciferase, z-score: 0.0839

For NR4A2 (GeneID 4929) #1, how do the results read?
total luciferase, z-score: 0.552

Which result is listed for NR4A2 (GeneID 4929) #2?
total luciferase, z-score: 0.085

How did the screen score NR4A2 (GeneID 4929) #3?
total luciferase, z-score: 0.159

For PINX1 (GeneID 54984) #1, how do the results read?
total luciferase, z-score: 0.738

What did the screen give for PINX1 (GeneID 54984) #2?
total luciferase, z-score: 0.329

For PINX1 (GeneID 54984) #3, what does the deposit list?
total luciferase, z-score: -0.334

With FGL2 (GeneID 10875) #1, how do the results read?
total luciferase, z-score: -1.1

For FGL2 (GeneID 10875) #2, how do the results read?
total luciferase, z-score: -0.281

What did the screen give for FGL2 (GeneID 10875) #3?
total luciferase, z-score: -0.106

With FANCC (GeneID 2176) #1, how do the results read?
total luciferase, z-score: 2.55

For FANCC (GeneID 2176) #2, what was measured?
total luciferase, z-score: 0.447

With FANCC (GeneID 2176) #3, what was measured?
total luciferase, z-score: 0.361

With ZNF132 (GeneID 7691) #1, how do the results read?
total luciferase, z-score: 1.5

With ZNF132 (GeneID 7691) #2, how do the results read?
total luciferase, z-score: -0.295

What did the screen give for ZNF132 (GeneID 7691) #3?
total luciferase, z-score: 0.556

For SPTBN1 (GeneID 6711) #1, how do the results read?
total luciferase, z-score: 0.474

For SPTBN1 (GeneID 6711) #2, what does the deposit list?
total luciferase, z-score: -0.132

What is on record for SPTBN1 (GeneID 6711) #3?
total luciferase, z-score: 1.75
